This is one part of the list.

The experiment addresses T1, OsSMF1 (Oryza sativa, UniProt Q6ZLB0 1-436).
T1 sequence: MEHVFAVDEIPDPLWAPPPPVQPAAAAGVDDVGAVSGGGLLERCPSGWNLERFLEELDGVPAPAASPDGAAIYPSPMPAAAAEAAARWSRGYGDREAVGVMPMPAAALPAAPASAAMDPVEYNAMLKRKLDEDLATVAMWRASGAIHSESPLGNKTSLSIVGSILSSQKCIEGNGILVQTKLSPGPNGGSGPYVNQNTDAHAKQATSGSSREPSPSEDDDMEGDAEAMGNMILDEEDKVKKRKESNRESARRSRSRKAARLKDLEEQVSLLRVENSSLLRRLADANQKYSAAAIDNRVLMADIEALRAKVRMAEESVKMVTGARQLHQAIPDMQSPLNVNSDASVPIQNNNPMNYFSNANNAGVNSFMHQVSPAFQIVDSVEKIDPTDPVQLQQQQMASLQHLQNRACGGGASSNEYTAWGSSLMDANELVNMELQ
Nature of the experiment: protein-binding microarray (RPBM); PBS, 2% BSA, 51.3 ng/ul salmon testes DNA, 50 uM zinc acetate, 200 nM TF, 25 C, 1 h; high values mean tight binding. Particulars: protein: recombinant; tags: N-terminal polyhistidine and DsRed monomer fusion (pET32a); chain copies: 2; label: CyDye5-dUTP incorporated in the synthesized complementary strand; 3' TTTTT single-stranded linker to array surface; dsDNA, one strand shown. The method, boiled down:
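The binding signal is fluorescence intensity per array feature (arbitrary units). Readings came from an Axon 4000B scanner after a washed, 2% BSA-blocked, double-stranded custom Agilent array had been incubated for 1 h at 25 °C with 200 nM protein and 50 µM zinc acetate. The protein was a Ni–NTA-purified transcription factor fused N-terminally to polyhistidine and DsRed, expressed in E. coli BL21-CodonPlus.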
“TTAGCCCTTCCTCTCCTGCTTCCGCCCTTCCATGGCAATGCGGAGTCACCTAGTGCAG”: the binding signal is 46700 fluorescence intensity (a.u.).
As for “TGGGCGTACGGCTGTCACGTGTTTCCGGCGGACGAGTCTTCGGAGTCACCTAGTGCAG”, the binding signal was 3440 fluorescence intensity (a.u.).
In the case of “CTCATCTCCACAAGGACACCCCAGCCCACCACTCATCGGCCGGAGTCACCTAGTGCAG” it was 3350 fluorescence intensity (a.u.); in that of “TCTGTGGTGGATTTGGTCAGGTGGAGAATGAGTTTGGGCCCGGAGTCACCTAGTGCAG”, 5650 fluorescence intensity (a.u.).
As to “TAGGCAAATTACATGGCATGTGCCACGTCGTTGTTGCACCCGGAGTCACCTAGTGCAG”, the binding signal is 16500 fluorescence intensity (a.u.).
Regarding “TCGCCCGCGCCCACTGACACGTGGGGCCCGGCACGTGGGCCGGAGTCACCTAGTGCAG”, the binding signal was 11500 fluorescence intensity (a.u.).
Take “TGGGCAAGCAGGTGAAGTGAGGGACCATGGTGAGAGGGTGCGGAGTCACCTAGTGCAG”: the binding signal is 31700 fluorescence intensity (a.u.).
Consider “AGGTATGTGTCAACTTGCTCATATAATAGAGGGACACGTTCGGAGTCACCTAGTGCAG”, for which the binding signal is 3230 fluorescence intensity (a.u.).
With “GCGGCGCTCGACGTCGACGGCGGAGAGCTCCTCGATCGCCCGGAGTCACCTAGTGCAG”, the binding signal is 3150 fluorescence intensity (a.u.).
Take “CCTAGAACTTCAAGCCAAGCACATCATCAGTTGCACACTCCGGAGTCACCTAGTGCAG”: the binding signal was 3990 fluorescence intensity (a.u.).
As for “CTGCACCACCACCACCGCCACCGCGGCCTCTCCTCCTCCCCGGAGTCACCTAGTGCAG”, the figure is 3970 fluorescence intensity (a.u.); as for “GGATGTGTATGTATTTATAGGGGTAAGTGAGAAGACTCATCGGAGTCACCTAGTGCAG”, 5230 fluorescence intensity (a.u.).
As for “AAAGCAATGCAGCTATAGCTAAAGGACTTAAAGTAGCCAACGGAGTCACCTAGTGCAG”, the binding signal was 3350 fluorescence intensity (a.u.).
With “TGCCCGCATGCCACCGTCAACACCGCTGTGGCCCTCGCCCCGGAGTCACCTAGTGCAG”, the binding signal was 3270 fluorescence intensity (a.u.).
In the case of “GTCATTGTCATCCTATAGTCTTTTAACAACTCGATCAGAACGGAGTCACCTAGTGCAG” it was 18000 fluorescence intensity (a.u.).
“CGGAGCATATCGTCCTTTTCGTTGTCGGCGGCGGCGTAGGCGGAGTCACCTAGTGCAG”: the binding signal is 3450 fluorescence intensity (a.u.).
In the case of “TTCGATACATAATCTGTTGCGATAAAACATACTCCCTCCGCGGAGTCACCTAGTGCAG” it was 24700 fluorescence intensity (a.u.).
In the case of “GCCGGAGCTGCACGACTTCGGACCCGCCGCCGCCGACTCCCGGAGTCACCTAGTGCAG”, the binding signal was 3850 fluorescence intensity (a.u.).
On to “GGAAGGGAGAGAGATGACATGGCAGACTGATATGTGGGGCCGGAGTCACCTAGTGCAG”, for which the binding signal was 9860 fluorescence intensity (a.u.).
In the case of “GTGGCACATCCACGTGGGCCACGTTGGCGGTTGGCCCCTTCGGAGTCACCTAGTGCAG”, the binding signal is 18700 fluorescence intensity (a.u.).
Consider “GGCTACTAACTTGGGTGACTAGGCAGCAATAAGGTGACCTCGGAGTCACCTAGTGCAG”, for which the binding signal was 5940 fluorescence intensity (a.u.).
With “TAAGGAAACAAGCCCGCGATGTGTCGTGTGCAGCAATCTTCGGAGTCACCTAGTGCAG”, the binding signal was 3440 fluorescence intensity (a.u.).
As to “CATTAATATTGATATGGTTCGCTGTTTGCATATATGTGAACGGAGTCACCTAGTGCAG”, the binding signal is 3410 fluorescence intensity (a.u.).
In the case of “ACACGAGCCGAGAGCAAAACGTCCCCGTCCCGCCGTCCCGCGGAGTCACCTAGTGCAG” it was 3290 fluorescence intensity (a.u.).
As for “GCCCATATAAAGAAACGCTGCACTGGATGGCTTGTTGCTCCGGAGTCACCTAGTGCAG”, the binding signal was 3560 fluorescence intensity (a.u.).
As for “AGTGTGTACGACTGGAACGGCTGAGCACGTCGCTACGCACCGGAGTCACCTAGTGCAG”, the figure is 3470 fluorescence intensity (a.u.); as for “GAATTATGATTCAATAAATCTTAGAATCCACGTGGCTCCCCGGAGTCACCTAGTGCAG”, 22100 fluorescence intensity (a.u.).
In the case of “TTTTCCTCCGTTCTCCGCCCACGCGCCGTCATCGCTGCCCCGGAGTCACCTAGTGCAG” it was 16000 fluorescence intensity (a.u.); in that of “ACAATATTATATCCAACGTCAACACCAGACTATATCAATGCGGAGTCACCTAGTGCAG”, 4190 fluorescence intensity (a.u.).
In the case of “AGCGGGCCCACCAAGTCAGCCTCACACCTTCTTCTTCTTCCGGAGTCACCTAGTGCAG” it was 4150 fluorescence intensity (a.u.); in that of “CTGTTTGCTCCCTGACGGAGAGTGAAGGCTGAAGAGTTAACGGAGTCACCTAGTGCAG”, 4180 fluorescence intensity (a.u.).
For the sequence “GCTGGCTACTGTGTGTGTCGTGTGAGTAGGGAGATGTCGTCGGAGTCACCTAGTGCAG”, the binding signal is 3370 fluorescence intensity (a.u.).
As to “GGGGCTCGTCGCCATGGCATTCACGGCGGGGATGCGACATCGGAGTCACCTAGTGCAG”, the binding signal is 31100 fluorescence intensity (a.u.).
Regarding “ATGCATGGAAATTAATTAATCTAGCTCGTTGTCGACGTCACGGAGTCACCTAGTGCAG”, the binding signal was 4280 fluorescence intensity (a.u.).
On to “ACCTAGTAATATTATTATTTATTTGTACATTGACGCGTGGCGGAGTCACCTAGTGCAG”, for which the binding signal was 13800 fluorescence intensity (a.u.).
Take “GAGCGTACCTGTCACCGTCTCATGTGTAATAGGCTAACAGCGGAGTCACCTAGTGCAG”: the binding signal was 4260 fluorescence intensity (a.u.).
As for “ATGAGGACACCTCACCACTATTGCTTGCAGAACCACAGATCGGAGTCACCTAGTGCAG”, the figure is 4500 fluorescence intensity (a.u.).
In the case of “TTTTGTATTTCCTCTCGTAGACTTTCTTTGGTCTTACATTCGGAGTCACCTAGTGCAG” it was 19700 fluorescence intensity (a.u.).
Take “CTATGTGTGACTATGAGGTGGAGCAAAGGGATGTGATTGACGGAGTCACCTAGTGCAG”: the binding signal is 4050 fluorescence intensity (a.u.).
With “TCGTTCACGACTTTTGCAGACGGGCCATATGTGACTCGAGCGGAGTCACCTAGTGCAG”, the binding signal is 3440 fluorescence intensity (a.u.).
In the case of “CTTCGACCCCTTATGACGTCGACTTCATGGACGAGGACGCCGGAGTCACCTAGTGCAG” it was 3630 fluorescence intensity (a.u.); in that of “TTATTTGGTTGATAATTACGTGTCTACGTTTATTTGTTACCGGAGTCACCTAGTGCAG”, 6100 fluorescence intensity (a.u.).

Values taken from paper PMC7819943, “Rice protein-binding microarrays: a tool to detect cis-acting elements near promoter regions in rice”.
